This passage reports binding results from paper doi:10.1101/2021.05.12.443731.

The chains behind the UniProt entries cited, without tags or fusion partners. Residues count along the entry.
UniProt O14639: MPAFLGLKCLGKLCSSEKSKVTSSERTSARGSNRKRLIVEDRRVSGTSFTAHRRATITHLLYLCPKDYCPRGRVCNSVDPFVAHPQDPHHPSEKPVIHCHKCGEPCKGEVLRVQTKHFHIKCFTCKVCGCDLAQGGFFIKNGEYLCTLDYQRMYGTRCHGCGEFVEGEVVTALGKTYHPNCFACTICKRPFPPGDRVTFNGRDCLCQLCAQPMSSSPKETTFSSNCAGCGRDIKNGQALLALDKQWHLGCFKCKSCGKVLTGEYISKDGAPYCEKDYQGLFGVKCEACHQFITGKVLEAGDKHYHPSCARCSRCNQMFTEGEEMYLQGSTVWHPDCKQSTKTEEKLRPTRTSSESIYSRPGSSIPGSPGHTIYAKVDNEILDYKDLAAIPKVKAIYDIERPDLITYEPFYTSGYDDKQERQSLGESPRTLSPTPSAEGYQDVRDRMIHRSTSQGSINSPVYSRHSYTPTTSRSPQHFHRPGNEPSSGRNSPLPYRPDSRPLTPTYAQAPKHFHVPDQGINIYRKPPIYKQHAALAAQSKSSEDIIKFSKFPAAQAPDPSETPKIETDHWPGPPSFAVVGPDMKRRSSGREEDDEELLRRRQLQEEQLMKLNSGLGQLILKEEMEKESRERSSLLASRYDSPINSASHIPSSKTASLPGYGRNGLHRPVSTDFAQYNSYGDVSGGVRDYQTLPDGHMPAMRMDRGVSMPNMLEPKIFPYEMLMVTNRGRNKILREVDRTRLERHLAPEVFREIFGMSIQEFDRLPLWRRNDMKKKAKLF
UniProt P06127, residues 25-495: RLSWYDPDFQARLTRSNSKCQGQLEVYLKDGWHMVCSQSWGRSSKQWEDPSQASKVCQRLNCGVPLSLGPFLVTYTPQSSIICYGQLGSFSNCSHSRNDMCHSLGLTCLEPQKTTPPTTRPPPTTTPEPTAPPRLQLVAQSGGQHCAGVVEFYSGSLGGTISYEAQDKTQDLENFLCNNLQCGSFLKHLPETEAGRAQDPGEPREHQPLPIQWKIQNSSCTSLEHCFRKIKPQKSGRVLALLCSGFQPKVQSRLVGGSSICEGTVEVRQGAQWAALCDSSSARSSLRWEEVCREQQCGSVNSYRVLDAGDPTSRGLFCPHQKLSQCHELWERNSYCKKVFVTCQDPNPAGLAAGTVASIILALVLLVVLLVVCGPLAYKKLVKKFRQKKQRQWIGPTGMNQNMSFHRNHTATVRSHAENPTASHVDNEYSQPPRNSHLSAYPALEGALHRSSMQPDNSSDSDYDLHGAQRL
UniProt Q9UJU6: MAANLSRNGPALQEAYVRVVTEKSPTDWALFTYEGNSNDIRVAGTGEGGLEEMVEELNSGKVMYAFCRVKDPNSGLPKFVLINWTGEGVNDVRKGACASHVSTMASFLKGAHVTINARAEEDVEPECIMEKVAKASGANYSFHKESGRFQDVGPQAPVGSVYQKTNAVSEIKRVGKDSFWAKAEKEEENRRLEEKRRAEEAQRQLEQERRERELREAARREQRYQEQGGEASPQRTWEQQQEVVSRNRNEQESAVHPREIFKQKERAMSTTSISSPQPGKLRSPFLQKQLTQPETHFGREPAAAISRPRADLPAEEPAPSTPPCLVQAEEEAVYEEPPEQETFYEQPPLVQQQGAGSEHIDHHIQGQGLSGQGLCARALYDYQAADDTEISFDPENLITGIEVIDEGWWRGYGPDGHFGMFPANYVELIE
UniProt O43143: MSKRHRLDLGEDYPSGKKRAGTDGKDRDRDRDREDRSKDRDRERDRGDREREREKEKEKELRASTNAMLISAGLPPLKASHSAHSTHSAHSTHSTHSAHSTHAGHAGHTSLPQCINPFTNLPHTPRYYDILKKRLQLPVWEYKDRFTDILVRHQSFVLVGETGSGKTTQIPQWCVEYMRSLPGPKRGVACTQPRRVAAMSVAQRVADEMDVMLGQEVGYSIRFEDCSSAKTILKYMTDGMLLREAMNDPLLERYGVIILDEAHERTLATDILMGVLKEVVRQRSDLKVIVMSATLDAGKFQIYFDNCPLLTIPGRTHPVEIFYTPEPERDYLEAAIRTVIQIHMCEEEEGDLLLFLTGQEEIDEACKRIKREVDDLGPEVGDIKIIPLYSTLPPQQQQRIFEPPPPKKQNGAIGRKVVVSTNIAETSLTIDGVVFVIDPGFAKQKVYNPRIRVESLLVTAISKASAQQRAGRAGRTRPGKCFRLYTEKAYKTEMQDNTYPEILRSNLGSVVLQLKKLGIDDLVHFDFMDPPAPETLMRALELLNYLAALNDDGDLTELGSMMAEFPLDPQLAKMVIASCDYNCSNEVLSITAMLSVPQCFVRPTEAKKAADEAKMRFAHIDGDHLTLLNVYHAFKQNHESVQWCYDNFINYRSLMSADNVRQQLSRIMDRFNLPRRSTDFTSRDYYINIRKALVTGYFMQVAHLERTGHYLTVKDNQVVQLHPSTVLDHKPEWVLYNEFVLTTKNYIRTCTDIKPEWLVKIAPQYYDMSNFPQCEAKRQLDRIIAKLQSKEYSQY
UniProt Q92598: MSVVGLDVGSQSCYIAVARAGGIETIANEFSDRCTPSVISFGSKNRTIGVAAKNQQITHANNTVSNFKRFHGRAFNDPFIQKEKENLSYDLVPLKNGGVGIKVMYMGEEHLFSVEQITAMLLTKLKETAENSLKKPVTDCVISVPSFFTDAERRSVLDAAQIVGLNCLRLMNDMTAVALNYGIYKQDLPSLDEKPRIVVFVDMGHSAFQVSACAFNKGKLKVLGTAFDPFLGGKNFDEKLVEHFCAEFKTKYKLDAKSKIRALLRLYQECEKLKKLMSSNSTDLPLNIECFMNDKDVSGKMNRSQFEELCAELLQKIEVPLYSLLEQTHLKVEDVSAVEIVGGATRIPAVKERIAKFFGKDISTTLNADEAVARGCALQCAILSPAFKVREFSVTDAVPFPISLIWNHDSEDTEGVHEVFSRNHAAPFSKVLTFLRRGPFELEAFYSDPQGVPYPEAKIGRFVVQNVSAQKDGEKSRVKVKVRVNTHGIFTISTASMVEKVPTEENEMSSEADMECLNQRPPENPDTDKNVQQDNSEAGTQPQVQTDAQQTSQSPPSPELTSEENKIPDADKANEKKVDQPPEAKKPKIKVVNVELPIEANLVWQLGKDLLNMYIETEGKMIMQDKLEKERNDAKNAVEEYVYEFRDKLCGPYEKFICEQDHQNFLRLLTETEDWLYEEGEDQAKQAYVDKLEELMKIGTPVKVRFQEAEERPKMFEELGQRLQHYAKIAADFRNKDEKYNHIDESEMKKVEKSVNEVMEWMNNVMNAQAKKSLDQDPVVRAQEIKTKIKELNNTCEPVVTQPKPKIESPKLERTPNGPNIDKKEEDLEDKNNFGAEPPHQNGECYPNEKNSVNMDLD
UniProt Q71RC2: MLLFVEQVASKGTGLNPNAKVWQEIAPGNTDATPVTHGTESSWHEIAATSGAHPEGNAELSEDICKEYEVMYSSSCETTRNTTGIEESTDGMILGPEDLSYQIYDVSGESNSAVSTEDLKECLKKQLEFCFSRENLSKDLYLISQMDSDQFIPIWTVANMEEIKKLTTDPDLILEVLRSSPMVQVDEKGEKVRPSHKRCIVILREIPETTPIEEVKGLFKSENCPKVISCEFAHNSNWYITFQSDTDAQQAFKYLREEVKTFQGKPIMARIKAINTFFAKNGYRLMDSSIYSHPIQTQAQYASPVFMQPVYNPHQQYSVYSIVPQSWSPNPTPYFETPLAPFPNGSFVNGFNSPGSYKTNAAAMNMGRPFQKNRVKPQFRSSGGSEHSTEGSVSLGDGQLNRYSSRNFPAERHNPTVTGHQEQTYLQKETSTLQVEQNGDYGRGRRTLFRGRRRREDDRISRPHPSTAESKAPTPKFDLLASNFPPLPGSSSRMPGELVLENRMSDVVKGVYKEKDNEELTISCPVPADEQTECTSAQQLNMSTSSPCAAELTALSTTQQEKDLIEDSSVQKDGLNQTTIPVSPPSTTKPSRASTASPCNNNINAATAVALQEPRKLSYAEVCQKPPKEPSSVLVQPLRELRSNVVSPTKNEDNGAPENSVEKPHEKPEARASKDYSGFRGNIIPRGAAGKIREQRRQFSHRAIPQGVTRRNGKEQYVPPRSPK
UniProt P62140: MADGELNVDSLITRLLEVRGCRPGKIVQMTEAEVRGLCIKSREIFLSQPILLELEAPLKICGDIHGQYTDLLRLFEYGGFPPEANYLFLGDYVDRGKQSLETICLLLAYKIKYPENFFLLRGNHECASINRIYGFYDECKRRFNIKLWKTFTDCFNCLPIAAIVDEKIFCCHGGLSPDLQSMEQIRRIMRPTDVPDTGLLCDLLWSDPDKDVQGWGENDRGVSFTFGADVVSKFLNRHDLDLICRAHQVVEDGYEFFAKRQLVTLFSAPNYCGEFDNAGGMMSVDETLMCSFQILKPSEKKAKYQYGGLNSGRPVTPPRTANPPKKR
UniProt P19525: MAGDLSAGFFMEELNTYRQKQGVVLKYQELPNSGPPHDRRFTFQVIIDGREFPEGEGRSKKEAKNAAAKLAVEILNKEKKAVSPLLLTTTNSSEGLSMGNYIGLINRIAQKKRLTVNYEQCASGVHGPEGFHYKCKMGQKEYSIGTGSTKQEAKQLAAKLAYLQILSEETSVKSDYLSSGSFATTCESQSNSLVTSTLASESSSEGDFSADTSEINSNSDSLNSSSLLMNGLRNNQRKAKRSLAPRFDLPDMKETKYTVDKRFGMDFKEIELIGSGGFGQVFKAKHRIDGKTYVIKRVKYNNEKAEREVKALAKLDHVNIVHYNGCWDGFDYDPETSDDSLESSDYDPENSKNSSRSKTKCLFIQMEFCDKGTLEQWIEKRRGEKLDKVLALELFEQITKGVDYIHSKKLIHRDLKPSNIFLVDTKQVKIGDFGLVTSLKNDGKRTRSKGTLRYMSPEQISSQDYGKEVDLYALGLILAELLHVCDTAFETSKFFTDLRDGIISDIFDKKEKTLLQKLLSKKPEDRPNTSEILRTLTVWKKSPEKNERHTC
UniProt Q04637: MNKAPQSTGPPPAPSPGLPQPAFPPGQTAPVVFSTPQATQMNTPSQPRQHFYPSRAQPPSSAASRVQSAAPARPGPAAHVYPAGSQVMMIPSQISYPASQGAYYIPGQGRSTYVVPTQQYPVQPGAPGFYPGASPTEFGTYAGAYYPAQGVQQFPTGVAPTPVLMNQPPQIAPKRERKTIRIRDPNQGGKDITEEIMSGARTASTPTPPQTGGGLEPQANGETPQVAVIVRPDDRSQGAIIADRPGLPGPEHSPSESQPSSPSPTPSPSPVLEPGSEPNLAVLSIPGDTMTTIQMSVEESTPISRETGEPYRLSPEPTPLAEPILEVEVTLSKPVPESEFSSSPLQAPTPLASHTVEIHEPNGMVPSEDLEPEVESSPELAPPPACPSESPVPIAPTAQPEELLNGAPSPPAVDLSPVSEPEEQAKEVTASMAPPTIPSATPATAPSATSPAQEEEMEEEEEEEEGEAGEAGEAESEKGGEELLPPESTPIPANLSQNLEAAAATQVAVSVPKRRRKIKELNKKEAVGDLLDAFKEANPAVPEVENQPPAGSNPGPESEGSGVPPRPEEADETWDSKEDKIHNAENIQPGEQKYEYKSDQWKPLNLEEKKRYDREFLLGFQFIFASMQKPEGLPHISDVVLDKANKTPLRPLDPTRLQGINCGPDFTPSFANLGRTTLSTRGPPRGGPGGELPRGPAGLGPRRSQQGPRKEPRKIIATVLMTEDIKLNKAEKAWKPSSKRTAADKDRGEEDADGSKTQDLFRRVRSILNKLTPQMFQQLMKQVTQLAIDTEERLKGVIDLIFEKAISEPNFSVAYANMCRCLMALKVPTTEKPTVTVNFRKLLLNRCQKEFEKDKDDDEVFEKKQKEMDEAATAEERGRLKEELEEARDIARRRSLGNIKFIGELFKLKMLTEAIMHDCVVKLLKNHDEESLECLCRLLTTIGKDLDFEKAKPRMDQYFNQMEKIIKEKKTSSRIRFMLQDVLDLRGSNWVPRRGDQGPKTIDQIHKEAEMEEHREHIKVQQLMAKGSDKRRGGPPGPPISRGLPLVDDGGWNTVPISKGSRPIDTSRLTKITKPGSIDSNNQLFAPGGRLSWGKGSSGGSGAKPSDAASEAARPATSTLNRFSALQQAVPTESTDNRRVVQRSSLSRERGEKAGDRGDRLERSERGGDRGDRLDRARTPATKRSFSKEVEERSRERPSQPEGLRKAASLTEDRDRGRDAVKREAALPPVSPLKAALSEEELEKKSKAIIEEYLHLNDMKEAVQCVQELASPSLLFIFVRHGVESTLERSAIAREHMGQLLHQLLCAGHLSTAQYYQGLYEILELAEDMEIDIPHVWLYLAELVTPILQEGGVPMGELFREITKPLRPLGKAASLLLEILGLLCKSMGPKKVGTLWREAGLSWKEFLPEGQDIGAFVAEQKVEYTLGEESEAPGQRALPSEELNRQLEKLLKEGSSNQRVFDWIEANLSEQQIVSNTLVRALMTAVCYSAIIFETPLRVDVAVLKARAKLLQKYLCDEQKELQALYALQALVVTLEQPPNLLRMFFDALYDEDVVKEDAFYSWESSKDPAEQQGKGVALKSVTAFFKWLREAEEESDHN

These are yes or no findings as the source states them, for the method shown. In cells and extracts the contact can be indirect. Here binding means that the protein was enriched with, or labelled near, the bait; the list need not be complete. For part of these data: A no says only that the protein was not detected with the bait.

For assay [1], the target named is T1, FOSL2 (human (endogenous in Th17 cells)) (UniProt P15408).
T1 sequence: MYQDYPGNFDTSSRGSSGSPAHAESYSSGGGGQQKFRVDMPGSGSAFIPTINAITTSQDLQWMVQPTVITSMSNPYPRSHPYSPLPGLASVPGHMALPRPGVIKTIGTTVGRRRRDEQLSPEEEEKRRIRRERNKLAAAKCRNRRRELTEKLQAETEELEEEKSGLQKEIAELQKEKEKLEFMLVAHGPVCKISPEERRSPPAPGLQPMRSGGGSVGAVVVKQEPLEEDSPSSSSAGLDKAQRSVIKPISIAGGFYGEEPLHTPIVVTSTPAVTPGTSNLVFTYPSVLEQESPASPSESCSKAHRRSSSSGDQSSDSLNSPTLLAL
The assay is described as follows: affinity purification with mass spectrometry.

The target in assay [2] is T2, FOSL1 (human (endogenous in Th17 cells)) (UniProt P15407).
T2 sequence: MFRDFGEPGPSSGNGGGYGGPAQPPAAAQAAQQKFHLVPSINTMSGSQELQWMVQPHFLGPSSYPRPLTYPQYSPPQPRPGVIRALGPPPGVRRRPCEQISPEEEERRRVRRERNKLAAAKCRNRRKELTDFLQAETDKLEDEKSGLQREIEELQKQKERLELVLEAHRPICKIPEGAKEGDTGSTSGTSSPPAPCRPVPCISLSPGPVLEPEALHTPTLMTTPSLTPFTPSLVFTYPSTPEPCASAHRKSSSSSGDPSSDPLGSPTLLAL
The assay is described as follows: affinity purification with mass spectrometry.

For ABLIM1 (from UniProt O14639 1-778), in assay [1], the binding entry is recorded as “binds”. The same measure, in the same setting: in the case of ADD1 (from UniProt P35611 1-737) it was “binds”; in that of CAPZA2 (from UniProt P47755 1-286), “binds”; in that of CD5 (from UniProt P06127 25-495), “binds”. In the case of CD48 (from UniProt P09326 27-220), in assay [1], the binding entry is on record as “binds”. The same measure, in the same setting: the value for CORO1C (from UniProt Q9ULV4 1-474) was “binds”; that for DBNL (from UniProt Q9UJU6 1-430) was “binds”. Take DHX15 (from UniProt O43143 1-795): the binding entry in assay [2] and in assay [1] was “binds” in each case. For the molecule HNRNPH1 (from UniProt P31943 1-449), the binding result in assay [2] and in assay [1] was “binds” each time. HSPH1 (from UniProt Q92598 1-858): the binding entry in assay [2] and in assay [1] was “binds” throughout. As for LARP4 (from UniProt Q71RC2 1-724), the binding entry in assay [2] and in assay [1] was “binds” throughout. With MYO1B (from UniProt O43795 1-1136), the binding entry in assay [1] is on record as “binds”. Consider PPP1CB (from UniProt P62140 1-327), for which the binding entry in assay [1] is recorded as “binds”.

RUNX1 (from UniProt Q01196 1-453): the binding entry in assay [2] and in assay [1] was “binds” throughout. As to SIRT-1 (from UniProt Q96EB6), the binding result in assay [2] and in assay [1] was “binds” throughout. eIF2AK2 (from UniProt P19525 1-551): the binding entry in assay [2] and in assay [1] was “binds” each time. In the case of eIF3I (from UniProt Q13347 1-325), the binding entry in assay [2] and in assay [1] was “binds” throughout.

With eIF4E (from UniProt P06730 1-217), the binding entry in assay [2] and in assay [1] was “binds” throughout. In the case of eIF4G1 (from UniProt Q04637 1-1599), the binding result in assay [2] and in assay [1] was “binds” each time.

B1: MYO1D (protein, UniProt O94832 1-1006)
chain: MAEQESLEFGKADFVLMDTVSMPEFMANLRLRFEKGRIYTFIGEVVVSVNPYKLLNIYGRDTIEQYKGRELYERPPHLFAIADAAYKAMKRRSKDTCIVISGESGAGKTEASKYIMQYIAAITNPSQRAEVERVKNMLLKSNCVLEAFGNAKTNRNDNSSRFGKYMDINFDFKGDPIGGHINNYLLEKSRVIVQQPGERSFHSFYQLLQGGSEQMLRSLHLQKSLSSYNYIHVGAQLKSSINDAAEFRVVADAMKVIGFKPEEIQTVYKILAAILHLGNLKFVVDGDTPLIENGKVVSIIAELLSTKTDMVEKALLYRTVATGRDIIDKQHTEQEASYGRDAFAKAIYERLFCWIVTRINDIIEVKNYDTTIHGKNTVIGVLDIYGFEIFDNNSFEQFCINYCNEKLQQLFIQLVLKQEQEEYQREGIPWKHIDYFNNQIIVDLVEQQHKGIIAILDDACMNVGKVTDEMFLEALNSKLGKHAHFSSRKLCASDKILEFDRDFRIRHYAGDVVYSVIGFIDKNKDTLFQDFKRLMYNSSNPVLKNMWPEGKLSITEVTKRPLTAATLFKNSMIALVDNLASKEPYYVRCIKPNDKKSPQIFDDERCRHQVEYLGLLENVRVRRAGFAFRQTYEKFLHRYKMISEFTWPNHDLPSDKEAVKKLIERCGFQDDVAYGKTKIFIRTPRTLFTLEELRAQMLIRIVLFLQKVWRGTLARMRYKRTKAALTIIRYYRRYKVKSYIHEVARRFHGVKTMRDYGKHVKWPSPPKVLRRFEEALQTIFNRWRASQLIKSIPASDLPQVRAKVAAVEMLKGQRADLGLQRAWEGNYLASKPDTPQTSGTFVPVANELKRKDKYMNVLFSCHVRKVNRFSKVEDRAIFVTDRHLYKMDPTKQYKVMKTIPLYNLTGLSVSNGKDQLVVFHTKDNKDLIVCLFSKQPTHESRIGELVGVLVNHFKSEKRHLQVNVTNPVQCSLHGKKCTVSVETRLNQPQPDFTKNRSGFILSVPGN
Turning to B1, the binding entry in assay [1] is “binds”.

B2: FOSL1 (protein, UniProt P15407 1-271)
chain: T2 sequence
Turning to B2, the binding result in assay [1] is reported as “no binding”.

B3: JUND (protein, UniProt P17535 1-347)
chain: METPFYGDEALSGLGGGASGSGGSFASPGRLFPGAPPTAAAGSMMKKDALTLSLSEQVAAALKPAAAPPPTPLRADGAPSAAPPDGLLASPDLGLLKLASPELERLIIQSNGLVTTTPTSSQFLYPKVAASEEQEFAEGFVKALEDLHKQNQLGAGAAAAAAAAAAGGPSGTATGSAPPGELAPAAAAPEAPVYANLSSYAGGAGGAGGAATVAFAAEPVPFPPPPPPGALGPPRLAALKDEPQTVPDVPSFGESPPLSPIDMDTQERIKAERKRLRNRIAASKCRKRKLERISRLEEKVKTLKSQNTELASTASLLREQVAQLKQKVLSHVNSGCQLLPQHQVPAY
In the case of B3, the binding result in assay [1] is “binds”.

B4: NUFIP2 (protein, UniProt Q7Z417 1-695)
chain: MEEKPGQPQPQHHHSHHHPHHHPQQQQQQPHHHHHYYFYNHSHNHHHHHHHQQPHQYLQHGAEGSPKAQPKPLKHEQKHTLQQHQETPKKKTGYGELNGNAGEREISLKNLSSDEATNPISRVLNGNQQVVDTSLKQTVKANTFGKAGIKTKNFIQKNSMDKKNGKSYENKSGENQSVDKSDTIPIPNGVVTNNSGYITNGYMGKGADNDGSGSESGYTTPKKRKARRNSAKGCENLNIVQDKIMQQETSVPTLKQGLETFKPDYSEQKGNRVDGSKPIWKYETGPGGTSRGKPAVGDMLRKSSDSKPGVSSKKFDDRPKGKHASAVASKEDSWTLFKPPPVFPVDNSSAKIVPKISYASKVKENLNKTIQNSSVSPTSSSSSSSSTGETQTQSSSRLSQVPMSALKSVTSANFSNGPVLAGTDGNVYPPGGQPLLTTAANTLTPISSGTDSVLQDMSLTSAAVEQIKTSLFIYPSNMQTMLLSTAQVDLPSQTDQQNLGDIFQNQWGLSFINEPSAGPETVTGKSSEHKVMEVTFQGEYPATLVSQGAEIIPSGTEHPVFPKAYELEKRTSPQVLGSILKSGTTSESGALSLEPSHIGDLQKADTSSQGALVFLSKDYEIESQNPLASPTNTLLGSAKEQRYQRGLERNDSWGSFDLRAAIVYHTKEMESIWNLQKQDPKRIITYNEAMDSPDQ
For B4, the binding result in assay [2] and in assay [1] was “binds” in each case.

B5: ADD3 (protein, UniProt Q9UEY8 1-706)
chain: MSSDASQGVITTPPPPSMPHKERYFDRINENDPEYIRERNMSPDLRQDFNMMEQRKRVTQILQSPAFREDLECLIQEQMKKGHNPTGLLALQQIADYIMANSFSGFSSPPLSLGMVTPINDLPGADTSSYVKGEKLTRCKLASLYRLVDLFGWAHLANTYISVRISKEQDHIIIIPRGLSFSEATASNLVKVNIIGEVVDQGSTNLKIDHTGFSPHAAIYSTRPDVKCVIHIHTLATAAVSSMKCGILPISQESLLLGDVAYYDYQGSLEEQEERIQLQKVLGPSCKVLVLRNHGVVALGETLEEAFHYIFNVQLACEIQVQALAGAGGVDNLHVLDFQKYKAFTYTVAASGGGGVNMGSHQKWKVGEIEFEGLMRTLDNLGYRTGYAYRHPLIREKPRHKSDVEIPATVTAFSFEDDTVPLSPLKYMAQRQQREKTRWLNSPNTYMKVNVPEESRNGETSPRTKITWMKAEDSSKVSGGTPIKIEDPNQFVPLNTNPNEVLEKRNKIREQNRYDLKTAGPQSQLLAGIVVDKPPSTMQFEDDDHGPPAPPNPFSHLTEGELEEYKRTIERKQQGLEDAEQELLSDDASSVSQIQSQTQSPQNVPEKLEENHELFSKSFISMEVPVMVVNGKDDMHDVEDELAKRVSRLSTSTTIENIEITIKSPEKIEEVLSPEGSPSKSPSKKKKKFRTPSFLKKNKKKEKVEA
Take B5: in assay [1], the binding result is “binds”.

B6: JUNB (protein, UniProt P17275 1-347)
chain: MCTKMEQPFYHDDSYTATGYGRAPGGLSLHDYKLLKPSLAVNLADPYRSLKAPGARGPGPEGGGGGSYFSGQGSDTGASLKLASSELERLIVPNSNGVITTTPTPPGQYFYPRGGGSGGGAGGAGGGVTEEQEGFADGFVKALDDLHKMNHVTPPNVSLGATGGPPAGPGGVYAGPEPPPVYTNLSSYSPASASSGGAGAAVGTGSSYPTTTISYLPHAPPFAGGHPAQLGLGRGASTFKEEPQTVPEARSRDATPPVSPINMEDQERIKVERKRLRNRLAATKCRKRKLERIARLEDKVKTLKAENAGLSSTAGLLREQVAQLKQKVMTHVSNGCQLLLGVKGHAF
Turning to B6, the binding result in assay [1] is reported as “binds”.
